Data from PubChem BioAssay AID330 (DTP/NCI, 2004).
The list is a part of this screen's results and no random one: it gathers tests that were run many times, whatever their T/C, doses with no T/C, and many T/C values between a quarter and a half above the control. Other doses and runs of a compound stand elsewhere. T/C: endpoint of the treated group in % of that of the vehicle group. For survival time, this PubChem deposit counts one and a half times the control or more as active, and values a quarter to a half above the control carry no call in these data; other NCI protocols may use other cut-offs. Schedules are NCI's codes, taken here to give the interval after Q, in days (D) or hours (H), and the number of doses after X. Some T/C values are followed by the survivors on the day toxicity was checked, most often the fifth; where none is given, no animal had died by that day. Some doses were run more than once; the results are listed from low to high. Counts like (3×) give the number of equal values in this list.

Tested on: P388 leukemia ip, CD2F1 mice, survival T/C
Assay: NCI In Vivo Anticancer Drug Screen. Data for tumor model P388 Leukemia (intraperitoneal) in CD2F1 (CDF1) mice
Conditions: T/C endpoint: median survival time, higher T/C = longer survival

COc1cccc2c1C(=O)c1c(O)c3c(c(O)c1C2=O)C[C@@](O)(C(=O)CO)C[C@@H]3OC1CC(N)C(O)C(C)O1 (stereo partly specified) was tested, and the T/C (dose: 0.05 mg/kg/injection, schedule: Q01DX009 (ip), vehicle: water) was 128 % of control, the T/C (dose: 0.06 mg/kg/injection, schedule: Q01DX005 (ip), vehicle: water) was 129 % of control and the T/C (dose: 0.06 mg/kg/injection, schedule: Q01DX009 (ip), vehicle: saline) was 134 % of control. For the same molecule, the T/C (dose: 0.06 mg/kg/injection, schedule: Q01DX009 (ip), vehicle: water) was 136, 140, 149 % of control, the T/C (dose: 0.06 mg/kg/injection, schedule: Q04DX003 (ip), vehicle: saline) was 133 % of control and the T/C (dose: 0.1 mg/kg/injection, schedule: Q01DX009 (ip), vehicle: water) was 134 % of control. The T/C (dose: 0.1 mg/kg/injection, schedule: Q04DX003 (ip), vehicle: saline) was 126 % of control, the T/C (dose: 0.12 mg/kg/injection, schedule: Q01DX005 (ip), vehicle: water, evaluated on day 35) was 133 % of control and the T/C (dose: 0.12 mg/kg/injection, schedule: Q01DX005 (ip), vehicle: water, evaluated on day 60) was 141 % of control. The T/C (dose: 0.12 mg/kg/injection, schedule: Q01DX009 (ip), vehicle: water) was 143 and 146 % of control, the T/C (dose: 0.12 mg/kg/injection, schedule: Q04DX003 (ip), vehicle: saline) was 98 [5 of 6 alive], 103, 106, 115, 120 % of control and the T/C (dose: 0.13 mg/kg/injection, schedule: Q01DX009 (ip), vehicle: saline) was 140 % of control. The T/C (dose: 0.13 mg/kg/injection, schedule: Q01DX009 (ip), vehicle: water) was 148 % of control, the T/C (dose: 0.14 mg/kg/injection, schedule: Q01DX009 (ip), vehicle: saline, evaluated on day 45) was 147 % of control and the T/C (dose: 0.14 mg/kg/injection, schedule: Q01DX009 (ip), vehicle: saline, evaluated on day 60) was 143 % of control. For the same molecule, the T/C (dose: 0.14 mg/kg/injection, schedule: Q04DX003 (ip), vehicle: saline) was 133 % of control, the T/C (dose: 0.14 mg/kg/injection, schedule: Q04DX003 (ip), vehicle: water) was 137 % of control and the T/C (dose: 0.2 mg/kg/injection, schedule: Q01DX009 (ip), vehicle: water, evaluated on day 30) was 146 (2×), 150, 151, 152, 160 (2×), 161, 164, 165 (2×), 166 (2×), 169 % of control. For the same molecule, the T/C (dose: 0.2 mg/kg/injection, schedule: Q01DX009 (ip), vehicle: water, evaluated on day 45) was 146 (2×), 149, 152, 154 (3×), 155 (2×), 156, 159 (2×), 160, 161, 163, 165 (3×), 170, 172, 175 (2×), 192, 216 % of control, the T/C (dose: 0.2 mg/kg/injection, schedule: Q04DX003 (ip), vehicle: saline) was 134 % of control and the T/C (dose: 0.2 mg/kg/injection, schedule: Q04DX003 (ip), vehicle: water) was 147 % of control. The T/C (dose: 0.23 mg/kg/injection, schedule: Q01DX009 (ip), vehicle: saline) was 137 % of control, the T/C (dose: 0.25 mg/kg/injection, schedule: Q01DX009 (ip), vehicle: saline, evaluated on day 5) was 154 and 203 % of control and the T/C (dose: 0.25 mg/kg/injection, schedule: Q01DX009 (ip), vehicle: saline, evaluated on day 30) was 100 [8 of 10 alive], 122, 182 % of control. The T/C (dose: 0.25 mg/kg/injection, schedule: Q01DX009 (ip), vehicle: saline, evaluated on day 45) was 150, 153, 161 % of control, the T/C (dose: 0.25 mg/kg/injection, schedule: Q01DX009 (ip), vehicle: saline, evaluated on day 60) was 118, 165, 175 % of control and the T/C (dose: 0.25 mg/kg/injection, schedule: Q01DX009 (ip), vehicle: water, evaluated on day 5) was 152 % of control. For the same molecule, the T/C (dose: 0.25 mg/kg/injection, schedule: Q01DX009 (ip), vehicle: water, evaluated on day 30) was 100 [5 of 6 alive], 103, 110, 136, 141, 146, 148, 149, 150, 152, 153, 155, 157 (2×), 160, 161 (2×), 162, 164, 166, 167, 169, 170, 171 (2×), 172 (2×), 176, 177, 178, 180 (2×), 207, 209 % of control, the T/C (dose: 0.25 mg/kg/injection, schedule: Q01DX009 (ip), vehicle: water, evaluated on day 45) was 146, 149 (2×), 152 (2×), 153, 158, 159, 163, 166, 168 (2×), 171, 174, 175, 178 (3×), 181 (2×), 182 (2×), 184, 198, 209, 238 % of control and the T/C (dose: 0.25 mg/kg/injection, schedule: Q01DX009 (ip), vehicle: water, evaluated on day 60) was 150 % of control. The T/C (dose: 0.25 mg/kg/injection, schedule: Q03HX008 (ip), vehicle: saline) was 126 % of control, the T/C (dose: 0.25 mg/kg/injection, schedule: Q04DX003 (ip), vehicle: saline) was 100, 108, 109, 118, 128 % of control and the T/C (dose: 0.3 mg/kg/injection, schedule: Q04DX003 (ip), vehicle: saline) was 149 % of control. For the same molecule, the T/C (dose: 0.39 mg/kg/injection, schedule: Q01DX009 (ip), vehicle: saline, evaluated on day 30) was 130 % of control [9 of 10 alive], the T/C (dose: 0.39 mg/kg/injection, schedule: Q01DX009 (ip), vehicle: saline, evaluated on day 45) was 150 % of control and the T/C (dose: 0.39 mg/kg/injection, schedule: Q01DX009 (ip), vehicle: saline, evaluated on day 60) was 170 and 172 % of control. For the same molecule, the T/C (dose: 0.39 mg/kg/injection, schedule: Q01DX009 (ip), vehicle: water, evaluated on day 30) was 159, 161, 164 (2×), 169, 172, 175 (2×), 184, 188, 192, 202 % of control, the T/C (dose: 0.39 mg/kg/injection, schedule: Q01DX009 (ip), vehicle: water, evaluated on day 45) was 146, 154, 161, 163, 164, 168, 170 (2×), 171 (2×), 172, 176, 178, 181, 183, 187, 189 (2×), 191 (2×), 192, 195, 201, 205, 252 % of control and the T/C (dose: 0.5 mg/kg/injection, schedule: Q01DX001 (ip), vehicle: saline, evaluated on day 5) was 140 % of control. For the same molecule, the T/C (dose: 0.5 mg/kg/injection, schedule: Q01DX001 (ip), vehicle: saline, evaluated on day 7) was 135 % of control, the T/C (dose: 0.5 mg/kg/injection, schedule: Q01DX001 (ip), vehicle: saline, evaluated on day 45) was 114 % of control [7 of 8 alive on day 9] and the T/C (dose: 0.5 mg/kg/injection, schedule: Q01DX001 (ip), vehicle: saline, evaluated on day 60) was 115 % of control. For the same molecule, the T/C (dose: 0.5 mg/kg/injection, schedule: Q01DX009 (ip), vehicle: saline, evaluated on day 5) was 155 and 192 % of control, the T/C (dose: 0.5 mg/kg/injection, schedule: Q01DX009 (ip), vehicle: saline, evaluated on day 30) was 115 [9 of 10 alive], 120, 166 % of control and the T/C (dose: 0.5 mg/kg/injection, schedule: Q01DX009 (ip), vehicle: saline, evaluated on day 45) was 173, 178, 192 % of control [7 of 8 alive]. The T/C (dose: 0.5 mg/kg/injection, schedule: Q01DX009 (ip), vehicle: saline, evaluated on day 60) was 118, 162, 187 % of control, the T/C (dose: 0.5 mg/kg/injection, schedule: Q01DX009 (ip), vehicle: water, evaluated on day 5) was 180 % of control and the T/C (dose: 0.5 mg/kg/injection, schedule: Q01DX009 (ip), vehicle: water, evaluated on day 30) was 109 [5 of 6 alive], 115, 127, 137, 149 (2×), 156, 163 (2×), 163 [5 of 6 alive], 165, 166, 168, 171, 173 (2×), 175 (2×), 178 (2×), 182, 184, 186, 187, 188, 189, 190, 193, 195, 204, 206, 210, 217, 218, 223 % of control. For the same molecule, the T/C (dose: 0.5 mg/kg/injection, schedule: Q01DX009 (ip), vehicle: water, evaluated on day 45) was 142, 162, 169, 172, 173 (3×), 174, 178, 179, 183, 186 (2×), 188, 189, 192 (2×), 195, 198 (2×), 209 (2×), 213, 214, 219, 220 % of control, the T/C (dose: 0.5 mg/kg/injection, schedule: Q01DX009 (ip), vehicle: water, evaluated on day 60) was 174 % of control and the T/C (dose: 0.5 mg/kg/injection, schedule: Q03HX008 (ip), vehicle: saline) was 135 % of control.
